{"sequences": {"note": "The chains behind the UniProt entries cited, without tags or fusion partners. Where a name states a change or a piece, a line headed by the entry shows the natural chain unless it says otherwise.", "UniProt Q9JLQ0, whole entry": "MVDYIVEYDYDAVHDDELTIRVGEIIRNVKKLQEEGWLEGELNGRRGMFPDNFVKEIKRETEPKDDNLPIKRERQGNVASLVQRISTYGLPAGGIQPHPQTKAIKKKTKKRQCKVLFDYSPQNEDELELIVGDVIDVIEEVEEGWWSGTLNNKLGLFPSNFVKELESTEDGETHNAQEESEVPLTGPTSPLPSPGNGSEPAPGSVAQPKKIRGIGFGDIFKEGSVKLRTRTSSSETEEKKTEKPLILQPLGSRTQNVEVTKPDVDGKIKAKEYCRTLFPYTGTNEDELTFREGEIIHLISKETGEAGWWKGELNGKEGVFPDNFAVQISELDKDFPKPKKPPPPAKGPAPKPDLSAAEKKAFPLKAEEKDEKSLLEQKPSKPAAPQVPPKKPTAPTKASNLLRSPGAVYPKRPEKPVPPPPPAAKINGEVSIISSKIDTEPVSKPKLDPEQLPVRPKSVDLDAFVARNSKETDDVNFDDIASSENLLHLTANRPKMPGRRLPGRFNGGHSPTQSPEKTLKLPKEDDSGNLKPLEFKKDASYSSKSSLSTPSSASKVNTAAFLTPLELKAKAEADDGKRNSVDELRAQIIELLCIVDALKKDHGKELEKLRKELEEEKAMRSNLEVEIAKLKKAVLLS", "UniProt Q9JJC9": "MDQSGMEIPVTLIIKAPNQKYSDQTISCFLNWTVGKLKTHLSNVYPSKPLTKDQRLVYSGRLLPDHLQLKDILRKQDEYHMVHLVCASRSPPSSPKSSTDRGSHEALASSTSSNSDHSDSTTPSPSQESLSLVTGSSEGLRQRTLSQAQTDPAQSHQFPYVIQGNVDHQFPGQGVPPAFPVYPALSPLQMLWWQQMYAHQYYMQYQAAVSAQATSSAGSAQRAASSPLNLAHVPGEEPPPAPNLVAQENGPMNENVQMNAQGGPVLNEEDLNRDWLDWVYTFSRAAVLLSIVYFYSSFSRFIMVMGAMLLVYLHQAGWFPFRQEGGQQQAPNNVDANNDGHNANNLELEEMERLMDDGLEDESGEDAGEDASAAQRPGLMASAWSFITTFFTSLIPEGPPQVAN", "UniProt Q9JI13": "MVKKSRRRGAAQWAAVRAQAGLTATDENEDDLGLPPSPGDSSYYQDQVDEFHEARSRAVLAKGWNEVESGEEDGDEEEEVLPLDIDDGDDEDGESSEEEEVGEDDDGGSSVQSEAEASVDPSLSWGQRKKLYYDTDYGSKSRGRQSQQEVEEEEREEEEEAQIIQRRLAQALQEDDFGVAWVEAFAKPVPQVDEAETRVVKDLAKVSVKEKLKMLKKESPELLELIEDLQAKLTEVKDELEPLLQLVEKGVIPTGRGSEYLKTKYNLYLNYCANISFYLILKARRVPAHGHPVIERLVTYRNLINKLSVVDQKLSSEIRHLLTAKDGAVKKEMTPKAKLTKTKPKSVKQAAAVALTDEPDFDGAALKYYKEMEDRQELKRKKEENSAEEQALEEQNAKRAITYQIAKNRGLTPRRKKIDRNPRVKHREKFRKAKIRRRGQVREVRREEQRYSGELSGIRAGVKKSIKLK", "UniProt Q9JLY0": "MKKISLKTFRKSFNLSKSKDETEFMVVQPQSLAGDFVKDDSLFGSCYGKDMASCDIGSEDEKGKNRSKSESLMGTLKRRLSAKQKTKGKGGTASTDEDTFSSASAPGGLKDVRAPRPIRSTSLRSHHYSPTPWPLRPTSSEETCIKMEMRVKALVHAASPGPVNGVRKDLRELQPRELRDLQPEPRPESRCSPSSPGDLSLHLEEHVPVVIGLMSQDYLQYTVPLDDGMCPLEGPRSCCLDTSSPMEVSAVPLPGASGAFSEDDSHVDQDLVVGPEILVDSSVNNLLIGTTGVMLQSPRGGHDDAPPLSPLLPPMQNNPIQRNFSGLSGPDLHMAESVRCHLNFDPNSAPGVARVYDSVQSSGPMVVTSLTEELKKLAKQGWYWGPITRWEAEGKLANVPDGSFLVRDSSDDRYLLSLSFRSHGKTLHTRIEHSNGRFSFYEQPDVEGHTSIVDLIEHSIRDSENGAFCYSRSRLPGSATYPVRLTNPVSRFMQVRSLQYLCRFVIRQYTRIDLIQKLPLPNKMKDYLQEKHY", "UniProt Q9JKV2": "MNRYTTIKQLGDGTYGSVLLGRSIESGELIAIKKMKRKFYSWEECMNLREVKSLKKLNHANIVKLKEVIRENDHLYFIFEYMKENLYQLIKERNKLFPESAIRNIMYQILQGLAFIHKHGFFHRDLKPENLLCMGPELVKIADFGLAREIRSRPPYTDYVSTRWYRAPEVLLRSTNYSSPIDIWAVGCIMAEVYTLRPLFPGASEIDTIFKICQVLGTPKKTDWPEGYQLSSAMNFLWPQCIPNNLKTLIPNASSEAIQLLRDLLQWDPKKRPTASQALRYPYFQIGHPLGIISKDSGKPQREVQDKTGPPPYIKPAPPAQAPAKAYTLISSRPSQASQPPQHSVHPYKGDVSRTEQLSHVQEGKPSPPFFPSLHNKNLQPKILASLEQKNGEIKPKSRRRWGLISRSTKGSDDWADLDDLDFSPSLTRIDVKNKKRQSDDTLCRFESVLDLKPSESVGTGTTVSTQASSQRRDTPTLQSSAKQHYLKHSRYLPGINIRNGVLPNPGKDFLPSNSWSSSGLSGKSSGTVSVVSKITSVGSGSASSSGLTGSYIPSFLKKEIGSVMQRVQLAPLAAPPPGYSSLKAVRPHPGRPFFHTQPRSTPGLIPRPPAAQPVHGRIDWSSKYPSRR", "UniProt Q9JK81": "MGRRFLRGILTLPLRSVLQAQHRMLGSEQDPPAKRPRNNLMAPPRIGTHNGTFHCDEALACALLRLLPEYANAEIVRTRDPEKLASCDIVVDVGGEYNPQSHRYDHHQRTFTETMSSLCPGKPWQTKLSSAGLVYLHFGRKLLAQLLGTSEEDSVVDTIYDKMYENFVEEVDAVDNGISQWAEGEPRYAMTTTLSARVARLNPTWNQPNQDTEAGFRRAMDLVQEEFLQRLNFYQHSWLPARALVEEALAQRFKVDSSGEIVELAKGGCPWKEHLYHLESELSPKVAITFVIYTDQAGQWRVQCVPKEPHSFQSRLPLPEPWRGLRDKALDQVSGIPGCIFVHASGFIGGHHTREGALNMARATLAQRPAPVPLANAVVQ", "UniProt Q9JHI7, whole entry": "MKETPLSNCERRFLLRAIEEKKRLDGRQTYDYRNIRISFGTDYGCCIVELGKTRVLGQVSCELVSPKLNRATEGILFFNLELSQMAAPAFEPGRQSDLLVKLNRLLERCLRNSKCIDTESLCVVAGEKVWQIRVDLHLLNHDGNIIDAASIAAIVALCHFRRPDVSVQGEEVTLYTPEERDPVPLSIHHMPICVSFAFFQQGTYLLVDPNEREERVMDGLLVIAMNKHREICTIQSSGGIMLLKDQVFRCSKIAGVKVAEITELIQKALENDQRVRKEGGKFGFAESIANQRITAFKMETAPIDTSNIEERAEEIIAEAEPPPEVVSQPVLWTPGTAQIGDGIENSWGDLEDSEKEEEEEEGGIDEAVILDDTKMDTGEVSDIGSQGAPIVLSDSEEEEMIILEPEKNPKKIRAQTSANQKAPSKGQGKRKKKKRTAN", "UniProt Q9JKX6": "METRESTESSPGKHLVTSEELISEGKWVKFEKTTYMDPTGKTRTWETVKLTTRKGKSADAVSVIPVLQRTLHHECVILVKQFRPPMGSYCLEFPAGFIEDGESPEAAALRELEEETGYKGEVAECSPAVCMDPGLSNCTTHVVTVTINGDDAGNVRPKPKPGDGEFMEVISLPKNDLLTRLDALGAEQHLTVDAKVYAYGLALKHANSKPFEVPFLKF", "UniProt Q9JLI6": "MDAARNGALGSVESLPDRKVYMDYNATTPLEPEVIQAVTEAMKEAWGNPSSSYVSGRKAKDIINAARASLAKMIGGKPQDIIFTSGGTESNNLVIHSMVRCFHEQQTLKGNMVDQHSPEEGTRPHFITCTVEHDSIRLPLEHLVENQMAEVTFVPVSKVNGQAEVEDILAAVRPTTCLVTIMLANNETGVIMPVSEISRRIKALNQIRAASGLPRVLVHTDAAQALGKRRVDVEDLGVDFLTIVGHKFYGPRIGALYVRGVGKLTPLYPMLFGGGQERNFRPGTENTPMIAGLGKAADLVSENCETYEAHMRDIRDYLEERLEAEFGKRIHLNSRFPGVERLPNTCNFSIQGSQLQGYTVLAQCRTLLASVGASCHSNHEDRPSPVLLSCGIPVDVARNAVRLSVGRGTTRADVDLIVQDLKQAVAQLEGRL", "UniProt Q9JI38": "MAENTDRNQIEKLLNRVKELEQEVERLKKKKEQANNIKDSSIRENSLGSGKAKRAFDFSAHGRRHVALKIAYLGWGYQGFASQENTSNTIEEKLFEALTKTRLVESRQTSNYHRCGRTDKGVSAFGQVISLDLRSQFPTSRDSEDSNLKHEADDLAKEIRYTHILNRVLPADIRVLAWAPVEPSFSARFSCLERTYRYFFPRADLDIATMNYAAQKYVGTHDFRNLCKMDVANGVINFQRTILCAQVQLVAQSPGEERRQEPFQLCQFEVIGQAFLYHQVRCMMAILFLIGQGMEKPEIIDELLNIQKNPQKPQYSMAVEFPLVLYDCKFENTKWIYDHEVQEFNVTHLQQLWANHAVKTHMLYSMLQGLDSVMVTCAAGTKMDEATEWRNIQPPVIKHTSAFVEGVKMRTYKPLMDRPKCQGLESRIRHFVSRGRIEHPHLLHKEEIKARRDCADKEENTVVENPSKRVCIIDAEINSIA", "UniProt Q9QUM9": "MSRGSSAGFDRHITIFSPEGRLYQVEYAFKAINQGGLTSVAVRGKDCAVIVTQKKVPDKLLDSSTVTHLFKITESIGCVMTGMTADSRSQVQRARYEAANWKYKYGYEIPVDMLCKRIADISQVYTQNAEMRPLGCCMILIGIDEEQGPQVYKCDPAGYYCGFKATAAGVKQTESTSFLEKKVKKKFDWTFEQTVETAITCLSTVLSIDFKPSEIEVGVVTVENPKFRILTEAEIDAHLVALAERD", "UniProt Q9JID9": "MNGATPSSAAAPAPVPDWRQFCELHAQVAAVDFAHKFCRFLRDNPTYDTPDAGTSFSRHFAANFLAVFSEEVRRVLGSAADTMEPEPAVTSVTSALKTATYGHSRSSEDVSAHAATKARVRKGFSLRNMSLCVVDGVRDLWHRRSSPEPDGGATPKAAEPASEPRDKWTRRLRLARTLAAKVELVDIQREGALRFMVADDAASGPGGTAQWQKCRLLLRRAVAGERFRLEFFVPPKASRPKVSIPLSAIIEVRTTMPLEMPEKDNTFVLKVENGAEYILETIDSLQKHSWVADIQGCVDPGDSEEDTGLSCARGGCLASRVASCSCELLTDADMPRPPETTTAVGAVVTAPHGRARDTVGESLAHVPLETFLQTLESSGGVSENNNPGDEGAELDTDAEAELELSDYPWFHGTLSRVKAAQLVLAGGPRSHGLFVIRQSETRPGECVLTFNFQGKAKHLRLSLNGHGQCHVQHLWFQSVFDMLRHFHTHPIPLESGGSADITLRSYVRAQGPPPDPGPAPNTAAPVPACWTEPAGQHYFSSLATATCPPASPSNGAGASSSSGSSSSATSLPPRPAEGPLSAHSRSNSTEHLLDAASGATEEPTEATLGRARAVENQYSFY", "UniProt Q9JJH1": "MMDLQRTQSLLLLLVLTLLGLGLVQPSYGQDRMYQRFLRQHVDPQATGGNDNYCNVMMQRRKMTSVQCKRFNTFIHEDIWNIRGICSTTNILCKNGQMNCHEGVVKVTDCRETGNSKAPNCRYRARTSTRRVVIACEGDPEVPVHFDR", "UniProt Q9ERV1": "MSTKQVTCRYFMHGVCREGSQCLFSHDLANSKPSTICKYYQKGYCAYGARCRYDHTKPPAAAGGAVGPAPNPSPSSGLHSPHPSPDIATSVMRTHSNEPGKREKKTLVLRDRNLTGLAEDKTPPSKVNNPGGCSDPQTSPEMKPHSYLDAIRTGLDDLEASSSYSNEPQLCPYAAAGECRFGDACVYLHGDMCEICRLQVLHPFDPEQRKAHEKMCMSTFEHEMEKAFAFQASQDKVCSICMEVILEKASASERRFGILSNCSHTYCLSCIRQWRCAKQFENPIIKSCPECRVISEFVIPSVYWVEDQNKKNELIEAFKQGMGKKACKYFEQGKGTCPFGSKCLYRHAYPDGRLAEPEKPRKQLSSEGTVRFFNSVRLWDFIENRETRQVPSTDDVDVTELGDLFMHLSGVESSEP", "UniProt Q9JLT4, whole entry": "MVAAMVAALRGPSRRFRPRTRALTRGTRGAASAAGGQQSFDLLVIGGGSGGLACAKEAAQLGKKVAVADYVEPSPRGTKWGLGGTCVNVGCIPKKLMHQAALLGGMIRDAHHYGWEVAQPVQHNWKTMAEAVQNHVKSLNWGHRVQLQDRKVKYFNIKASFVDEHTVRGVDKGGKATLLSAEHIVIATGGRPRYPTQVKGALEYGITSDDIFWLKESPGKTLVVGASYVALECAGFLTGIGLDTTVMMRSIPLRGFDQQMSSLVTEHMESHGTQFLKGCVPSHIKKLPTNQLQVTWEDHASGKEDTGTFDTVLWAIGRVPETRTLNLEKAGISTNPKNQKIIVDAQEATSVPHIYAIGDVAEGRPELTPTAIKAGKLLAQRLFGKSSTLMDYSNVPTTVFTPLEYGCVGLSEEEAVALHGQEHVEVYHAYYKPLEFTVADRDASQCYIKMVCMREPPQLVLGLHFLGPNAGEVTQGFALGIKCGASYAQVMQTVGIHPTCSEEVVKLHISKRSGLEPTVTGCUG"}, "source": "the supplement of paper PMC12819154", "about": "“High-throughput peptide-centric local stability assay extends protein–ligand identification to membrane proteins, tissues and bacteria” (Nature Structural & Molecular Biology, 2025)", "note": "Some of the results follow. Most values lie at the level of the controls, where differences are scatter."}
{"compound": "CN[C@@H]1C[C@H]2O[C@@](C)([C@@H]1OC)n1c3ccccc3c3c4c(c5c6ccccc6n2c5c31)C(=O)NC4 [staurosporine]", "experiment": "log2 fold change of tryptic peptide abundance, ligand vs vehicle (limited proteolysis) (log2 ratio); higher = more trypsin-susceptible (destabilized)", "conditions": "ligand concentration: 20 uM; sample: mouse liver crude lysate; replicate design: treated separately"}
{"target": "UniProt Q9JJJ3 (peptide sequence: AEPAENNLEKHELSVIM, peptide start residue: 279)", "log2 fold change": -0.156}
{"target": "UniProt Q9JLQ0 (peptide sequence: ETGEAGWWKGELNGK, peptide start residue: 302)", "log2 fold change": 0.256}
{"target": "UniProt Q9JKP5 (peptide sequence: FAHPSKSCQVENGR, peptide start residue: 36)", "log2 fold change": -0.154}
{"target": "UniProt Q9ET47 (peptide sequence: QKLEEIQR, peptide start residue: 830)", "log2 fold change": 0.0544}
{"target": "UniProt Q9JJK5 (peptide sequence: NPSKMPETSTK, peptide start residue: 90)", "log2 fold change": 0.274}
{"target": "UniProt Q9JJC9 (peptide sequence: THLSNVYPSKPLTKDQR, peptide start residue: 39)", "log2 fold change": 0.197}
{"target": "UniProt Q9JJB9 (peptide sequence: AVANAIQQEVK, peptide start residue: 58)", "log2 fold change": 0.202}
{"target": "UniProt Q9JI13 (peptide sequence: YYKEMEDR, peptide start residue: 368)", "log2 fold change": 0.31}
{"target": "UniProt Q9JLY0 (peptide sequence: SLQYLCR, peptide start residue: 497)", "log2 fold change": -0.207}
{"target": "UniProt Q9JK91 (peptide sequence: ALKNPSEEYGK, peptide start residue: 165)", "log2 fold change": 0.404}
{"target": "UniProt Q9JKV2 (peptide sequence: YLPGINIR, peptide start residue: 492)", "log2 fold change": -0.0221}
{"target": "UniProt Q9JHI5 (peptide sequence: IGQFQLMQGK, peptide start residue: 317)", "log2 fold change": 0.106}
{"target": "UniProt Q9QUG2 (peptide sequence: EKDNFKDDLLLR, peptide start residue: 6)", "log2 fold change": -0.413}
{"target": "UniProt Q9JI08 (peptide sequence: KSTDADLAMSK, peptide start residue: 47)", "log2 fold change": -0.597}
{"target": "UniProt Q9JK81 (peptide sequence: LNFYQHSWLPAR, peptide start residue: 231)", "log2 fold change": -0.516}
{"target": "UniProt Q9QUN3 (peptide sequence: VVHPALPFTR, peptide start residue: 107)", "log2 fold change": 0.37}
{"target": "UniProt Q9JIK9 (peptide sequence: MRPWDYPAK, peptide start residue: 198)", "log2 fold change": 0.368}
{"target": "UniProt Q9JHR9 (peptide sequence: DLQPHSVIQR, peptide start residue: 62)", "log2 fold change": -0.000332}
{"target": "UniProt Q9ES28 (peptide sequence: KSTAALEEDAQILK, peptide start residue: 681)", "log2 fold change": -0.363}
{"target": "UniProt Q9JIG8 (peptide sequence: IENKIESIGLKR, peptide start residue: 149)", "log2 fold change": -0.284}
{"target": "UniProt Q9JHI7 (peptide sequence: FGFAESIANQR, peptide start residue: 282)", "log2 fold change": 0.0426}
{"target": "UniProt Q9JKY5 (peptide sequence: DRFHEQFHSLK, peptide start residue: 251)", "log2 fold change": 0.491}
{"target": "UniProt Q9JMG3 (peptide sequence: FLNDSEQVAR, peptide start residue: 108)", "log2 fold change": 0.132}
{"target": "UniProt Q9ESX5 (peptide sequence: NFDKLNVR, peptide start residue: 58)", "log2 fold change": -0.405}
{"target": "UniProt Q9JKX6 (peptide sequence: TLHHECVILVK, peptide start residue: 70)", "log2 fold change": -0.138}
{"target": "UniProt Q9JHH6 (peptide sequence: YGFLLPER, peptide start residue: 391)", "log2 fold change": 0.288}
{"target": "UniProt Q9JLI6 (peptide sequence: LEAEFGKR, peptide start residue: 322)", "log2 fold change": -0.667}
{"target": "UniProt Q9JIY0 (peptide sequence: ASSLSRPWEKPDK, peptide start residue: 236)", "log2 fold change": -0.0355}
{"target": "UniProt Q9JI38 (peptide sequence: HTSAFVEGVK, peptide start residue: 399)", "log2 fold change": 0.214}
{"target": "UniProt Q9QUM9 (peptide sequence: AINQGGLTSVAVR, peptide start residue: 31)", "log2 fold change": 0.367}
{"target": "UniProt Q9JID9 (peptide sequence: SHGLFVIR, peptide start residue: 430)", "log2 fold change": 0.561}
{"target": "UniProt Q9JJH1 (peptide sequence: GICSTTNILCK, peptide start residue: 84)", "log2 fold change": 0.0788}
{"target": "UniProt Q9ERV1 (peptide sequence: LAEPEKPR, peptide start residue: 354)", "log2 fold change": -0.123}
{"target": "UniProt Q9JL19 (peptide sequence: MAVPEDQSKK, peptide start residue: 1455)", "log2 fold change": 0.508}
{"target": "UniProt Q9JLT4 (peptide sequence: GCVPSHIK, peptide start residue: 278)", "log2 fold change": -0.203}
